According to patent publication US6133009:

System: HpyCH4V restriction endonuclease (Helicobacter pylori CH4)
Assay: enzyme reaction in vitro
Conditions: cleaves between G and C on both strands, blunt ends; primer extension product on M13mp18, 37 C 1 h; purified native protein; only the motif is given

## TGCA (double strand) [HpyCH4V recognition site TGCA]
  activity on this sequence: active

The exact form of at least one protein or probe is not confirmed.
